Some of the results follow. The main result of the screen is listed elsewhere. These columns were measured beside it and carry no call. Compounds called inactive in the main read-out are mostly missing here. The note in brackets gives the kind of curve behind each potency; many fits are weak.
Assay: qHTS Assay to Find Inhibitors of Chronic Active B-Cell Receptor Signaling
Details: ABC-DLBCL IkBa-CBG/CBR reporter, luminescence ratio (green luciferase fused to IkBa over red control in TMD8 lymphoma cells), 4 h
Summary of the method: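 Doxycycline induced both beetle luciferases in TMD8 lymphoma cells; IKK-driven degradation limits the IkappaBalpha-fused green signal, while red luminescence normalises for cell number and nonspecific effects. Compounds tested up to 46 uM, 4 hrs.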

[1] = measured here: CBR red luminescence, cell number
[2] = measured here: IkBa-CBG green luminescence

SMILES | AC50 [1] | AC50 [2]
COC(=O)C1=C(C)N(c2ccc(OC)c(OC)c2)C(=O)C1 | 7.08 µM [falling, partial curve] | –
Cc1c(NC(=O)c2c(NC(=O)CNC3CC3)sc3c2CCCC3)c(=O)n(-c2ccccc2)n1C | 29.1 µM [falling, single point] | –
Clc1ccccc1OCCn1cnc2ccccc21 | 5.01 µM [rising, full curve, poor fit] | –
CCC(=O)NCCn1c(C)cc2ccccc21 | 20.6 µM [rising, partial curve, poor fit] | –
O=C(N1CCN(c2ccccn2)CC1)N1c2ccccc2Sc2ccccc21 | 25.9 µM [rising, single point] | 6.51 µM [falling, partial curve, poor fit]
Cc1nc(Nc2cccc(F)c2)c2oc3ccccc3c2n1 | 5.01 µM [falling, partial curve, poor fit] | –
COc1ccc([C@]23Cc4cc(OC)c(OC)cc4C(O2)c2c(cc(C)n(Cc4ccccc4)c2=O)O3)cc1 | 6.31 µM [rising, single point] | –
Cc1ccc(C(=O)Nc2ccc3ccccc3c2)cc1 | 20 µM [falling, single point] | –
O=C(CCc1nc2ccccc2s1)OCC(=O)c1ccccc1 | 7.31 µM [rising, partial curve] | –
COc1cccc(/C=N/Nc2snc(SC)c2C#N)c1O | 9.2 µM [falling, partial curve] | –
Cc1cc(-n2c(C)cc(C(=O)CSc3[nH]c(=O)cc(C(F)(F)F)c3C#N)c2C)no1 | 29.1 µM [falling, single point] | –
COc1ccc(C(=O)NCc2ccc3c(c2)CCN3C(C)=O)c(OC)c1 | 6.31 µM [falling, single point] | –
COc1ccc(CN2CCCCC2C(=O)Nc2ccc(OC)c(OC)c2)cc1OC (centres undefined) | 20 µM [rising, partial curve, poor fit] | –
CSCCC(=O)N1CCCC(CNC(=O)c2ccccc2Cl)C1 (centres undefined) | 35.5 µM [falling, single point] | –
NC(=O)N/N=C/c1ccc2cccc(OCc3ccccc3)c2n1 | 15.8 µM [falling, partial curve, poor fit] | –
Cc1cccc(C(=O)NC(=S)Nc2ccc(Cc3ccncc3)cc2)c1 | 10 µM [falling, partial curve] | –

SMILES | AC50 [1] | AC50 [2]
CCN(Cc1ccccc1)c1ncnc2c1cnn2-c1ccc(F)cc1 | 12.6 µM [rising, partial curve, poor fit] | –
COc1ccccc1-c1nnc(NC(=O)c2ccc3ncsc3c2)o1 | 2.59 µM [falling, full curve] | –
CCCC12CN3CCN(CC(C3)/C1=N\NC(=O)c1ccccc1N)C2 | 20.6 µM [falling, partial curve] | –
COc1cccc(Nc2nc(-c3ccccc3)nc3ccccc23)c1 | 35.5 µM [falling, single point] | –
Cc1ccc(OCC(O)Cn2c(N)nc3c2c(=O)n(C)c(=O)n3C)cc1 (centres undefined) | 2.82 µM [rising, partial curve, poor fit] | –
O=C(N/N=C\c1cccnc1)c1ccc(Cl)s1 | 0.891 µM [rising, partial curve, poor fit] | –
COCCNC(=O)CSc1nc2ccccc2c(=O)n1CCC(=O)NCCc1ccc(OC)c(OC)c1 | 12.6 µM [rising, partial curve, poor fit] | –
N/C(=N\OC(=O)c1ccc([N+](=O)[O-])cc1)c1cccnc1 | 0.651 µM [rising, full curve, poor fit] | –
O=Cc1c(N2CCN(c3ccccc3)CC2)nc2ccccn2c1=O | 7.94 µM [rising, partial curve, poor fit] | 12.6 µM [falling, partial curve, poor fit]
COc1cccc(-c2sc3cc(OC)c(OC)cc3c2-c2ccc(OCCN3CCCCC3)cc2)c1 | – | 23.1 µM [falling, partial curve, poor fit]
CCOc1ccccc1C1C(C(=O)Nc2ccccc2)=C(C)Nc2nc(SCC(=O)c3ccc(C)cc3)nn21 (centres undefined) | 2.82 µM [falling, single point] | –
O=C1c2ccccc2NC(c2ccccc2O)N1O (centres undefined) | 6.31 µM [rising, single point] | –
CCCCNC(=O)c1nnn(-c2ccccc2)c1N | 11.6 µM [falling, partial curve] | –
Cc1cc(C)n2nc(S(=O)(=O)NCCc3ccccc3)nc2n1 | 4.61 µM [rising, single point] | –
Cc1onc(-c2ccccc2Cl)c1C(=O)OCn1nnc2ccccc2c1=O | 10.3 µM [falling, partial curve, poor fit] | –
COC(=O)CSc1nc(Cc2ccccc2)nc2ccccc12 | 22.4 µM [falling, single point] | –

Copied from the list.
AC50 [1], N/C(=N\OC(=O)c1ccc([N+](=O)[O-])cc1)c1cccnc1 is entered as 0.651 µM [rising, full curve, poor fit]
AC50 [1], COc1ccccc1-c1nnc(NC(=O)c2ccc3ncsc3c2)o1 is entered as 2.59 µM [falling, full curve]

From PubChem BioAssay AID493014 (National Center for Advancing Translational Sciences (NCATS), 2011)
